From publication PMC10378179

The chains behind the UniProt entries cited, without tags or fusion partners.
UniProt P25106: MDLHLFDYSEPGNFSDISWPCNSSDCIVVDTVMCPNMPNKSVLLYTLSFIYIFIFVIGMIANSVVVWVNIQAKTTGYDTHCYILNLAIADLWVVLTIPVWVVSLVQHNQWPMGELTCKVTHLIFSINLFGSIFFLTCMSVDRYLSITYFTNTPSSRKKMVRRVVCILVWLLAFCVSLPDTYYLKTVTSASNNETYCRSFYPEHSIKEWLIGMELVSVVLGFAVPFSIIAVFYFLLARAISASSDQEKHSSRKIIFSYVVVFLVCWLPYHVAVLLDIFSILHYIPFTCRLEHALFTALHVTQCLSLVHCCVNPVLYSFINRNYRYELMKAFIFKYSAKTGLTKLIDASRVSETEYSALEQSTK
UniProt Q9H4A6: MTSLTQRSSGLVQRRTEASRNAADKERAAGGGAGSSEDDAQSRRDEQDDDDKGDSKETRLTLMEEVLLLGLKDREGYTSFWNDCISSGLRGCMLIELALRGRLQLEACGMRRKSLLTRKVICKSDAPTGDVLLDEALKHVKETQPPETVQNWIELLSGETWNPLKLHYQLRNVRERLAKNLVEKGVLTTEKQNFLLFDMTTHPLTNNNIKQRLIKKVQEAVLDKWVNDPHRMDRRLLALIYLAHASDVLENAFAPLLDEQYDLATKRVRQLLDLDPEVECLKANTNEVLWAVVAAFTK
UniProt P68371: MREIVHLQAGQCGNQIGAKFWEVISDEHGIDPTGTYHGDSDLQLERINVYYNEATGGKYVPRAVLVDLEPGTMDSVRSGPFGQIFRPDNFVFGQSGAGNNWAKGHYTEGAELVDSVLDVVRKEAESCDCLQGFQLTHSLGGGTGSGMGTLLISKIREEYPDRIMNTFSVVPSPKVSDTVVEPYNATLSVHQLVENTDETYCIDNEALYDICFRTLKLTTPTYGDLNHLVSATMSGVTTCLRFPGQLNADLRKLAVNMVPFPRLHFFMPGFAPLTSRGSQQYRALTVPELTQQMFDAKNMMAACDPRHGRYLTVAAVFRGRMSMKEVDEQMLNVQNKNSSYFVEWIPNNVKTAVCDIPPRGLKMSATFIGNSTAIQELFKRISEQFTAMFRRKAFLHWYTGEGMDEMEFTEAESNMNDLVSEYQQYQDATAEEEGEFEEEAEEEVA
UniProt Q92538: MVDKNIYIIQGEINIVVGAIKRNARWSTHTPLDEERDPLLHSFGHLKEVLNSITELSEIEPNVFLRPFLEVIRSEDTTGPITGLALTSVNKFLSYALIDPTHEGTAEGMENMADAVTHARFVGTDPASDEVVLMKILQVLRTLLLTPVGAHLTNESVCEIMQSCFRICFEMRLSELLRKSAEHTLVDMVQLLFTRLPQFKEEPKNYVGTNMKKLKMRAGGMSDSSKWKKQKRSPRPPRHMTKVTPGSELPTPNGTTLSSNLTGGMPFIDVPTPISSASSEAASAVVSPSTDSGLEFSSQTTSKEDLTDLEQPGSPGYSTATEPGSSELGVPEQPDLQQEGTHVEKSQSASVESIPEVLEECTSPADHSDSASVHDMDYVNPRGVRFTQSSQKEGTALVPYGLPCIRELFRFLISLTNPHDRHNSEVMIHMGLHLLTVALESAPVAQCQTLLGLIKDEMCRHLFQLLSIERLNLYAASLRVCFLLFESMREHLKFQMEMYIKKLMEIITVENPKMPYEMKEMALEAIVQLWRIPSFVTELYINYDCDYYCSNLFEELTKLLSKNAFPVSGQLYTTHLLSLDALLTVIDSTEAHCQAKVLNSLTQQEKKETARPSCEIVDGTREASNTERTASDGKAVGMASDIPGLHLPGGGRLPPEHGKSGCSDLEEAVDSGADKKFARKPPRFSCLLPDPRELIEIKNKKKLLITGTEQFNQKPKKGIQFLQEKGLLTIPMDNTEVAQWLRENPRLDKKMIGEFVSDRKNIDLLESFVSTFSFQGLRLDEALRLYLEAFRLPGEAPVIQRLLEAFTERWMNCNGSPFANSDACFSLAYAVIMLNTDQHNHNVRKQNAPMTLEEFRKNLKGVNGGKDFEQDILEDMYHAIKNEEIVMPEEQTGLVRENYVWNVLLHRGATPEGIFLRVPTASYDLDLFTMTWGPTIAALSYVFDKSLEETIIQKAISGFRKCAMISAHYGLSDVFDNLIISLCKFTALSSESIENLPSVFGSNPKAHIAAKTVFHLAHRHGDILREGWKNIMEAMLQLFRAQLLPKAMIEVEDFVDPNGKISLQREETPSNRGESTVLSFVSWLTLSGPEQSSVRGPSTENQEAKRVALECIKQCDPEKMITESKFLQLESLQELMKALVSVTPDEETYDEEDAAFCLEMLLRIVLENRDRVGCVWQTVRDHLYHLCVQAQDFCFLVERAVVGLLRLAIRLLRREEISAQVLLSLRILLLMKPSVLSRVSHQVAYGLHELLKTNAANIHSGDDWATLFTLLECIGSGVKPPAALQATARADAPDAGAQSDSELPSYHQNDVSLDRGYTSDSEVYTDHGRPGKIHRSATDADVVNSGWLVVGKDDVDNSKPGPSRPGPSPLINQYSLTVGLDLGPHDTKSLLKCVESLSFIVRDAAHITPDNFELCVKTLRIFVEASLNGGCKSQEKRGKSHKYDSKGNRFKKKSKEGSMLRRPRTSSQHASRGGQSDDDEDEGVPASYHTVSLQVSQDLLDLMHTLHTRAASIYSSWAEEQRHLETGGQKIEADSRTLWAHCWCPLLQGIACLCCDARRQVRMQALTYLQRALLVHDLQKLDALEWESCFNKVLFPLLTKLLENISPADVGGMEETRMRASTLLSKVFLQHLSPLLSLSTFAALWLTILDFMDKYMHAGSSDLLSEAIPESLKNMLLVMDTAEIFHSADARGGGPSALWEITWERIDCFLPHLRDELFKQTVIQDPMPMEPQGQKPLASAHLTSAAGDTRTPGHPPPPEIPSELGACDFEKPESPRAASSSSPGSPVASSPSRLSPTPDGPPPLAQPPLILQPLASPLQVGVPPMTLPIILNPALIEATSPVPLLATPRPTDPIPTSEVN
UniProt Q00610: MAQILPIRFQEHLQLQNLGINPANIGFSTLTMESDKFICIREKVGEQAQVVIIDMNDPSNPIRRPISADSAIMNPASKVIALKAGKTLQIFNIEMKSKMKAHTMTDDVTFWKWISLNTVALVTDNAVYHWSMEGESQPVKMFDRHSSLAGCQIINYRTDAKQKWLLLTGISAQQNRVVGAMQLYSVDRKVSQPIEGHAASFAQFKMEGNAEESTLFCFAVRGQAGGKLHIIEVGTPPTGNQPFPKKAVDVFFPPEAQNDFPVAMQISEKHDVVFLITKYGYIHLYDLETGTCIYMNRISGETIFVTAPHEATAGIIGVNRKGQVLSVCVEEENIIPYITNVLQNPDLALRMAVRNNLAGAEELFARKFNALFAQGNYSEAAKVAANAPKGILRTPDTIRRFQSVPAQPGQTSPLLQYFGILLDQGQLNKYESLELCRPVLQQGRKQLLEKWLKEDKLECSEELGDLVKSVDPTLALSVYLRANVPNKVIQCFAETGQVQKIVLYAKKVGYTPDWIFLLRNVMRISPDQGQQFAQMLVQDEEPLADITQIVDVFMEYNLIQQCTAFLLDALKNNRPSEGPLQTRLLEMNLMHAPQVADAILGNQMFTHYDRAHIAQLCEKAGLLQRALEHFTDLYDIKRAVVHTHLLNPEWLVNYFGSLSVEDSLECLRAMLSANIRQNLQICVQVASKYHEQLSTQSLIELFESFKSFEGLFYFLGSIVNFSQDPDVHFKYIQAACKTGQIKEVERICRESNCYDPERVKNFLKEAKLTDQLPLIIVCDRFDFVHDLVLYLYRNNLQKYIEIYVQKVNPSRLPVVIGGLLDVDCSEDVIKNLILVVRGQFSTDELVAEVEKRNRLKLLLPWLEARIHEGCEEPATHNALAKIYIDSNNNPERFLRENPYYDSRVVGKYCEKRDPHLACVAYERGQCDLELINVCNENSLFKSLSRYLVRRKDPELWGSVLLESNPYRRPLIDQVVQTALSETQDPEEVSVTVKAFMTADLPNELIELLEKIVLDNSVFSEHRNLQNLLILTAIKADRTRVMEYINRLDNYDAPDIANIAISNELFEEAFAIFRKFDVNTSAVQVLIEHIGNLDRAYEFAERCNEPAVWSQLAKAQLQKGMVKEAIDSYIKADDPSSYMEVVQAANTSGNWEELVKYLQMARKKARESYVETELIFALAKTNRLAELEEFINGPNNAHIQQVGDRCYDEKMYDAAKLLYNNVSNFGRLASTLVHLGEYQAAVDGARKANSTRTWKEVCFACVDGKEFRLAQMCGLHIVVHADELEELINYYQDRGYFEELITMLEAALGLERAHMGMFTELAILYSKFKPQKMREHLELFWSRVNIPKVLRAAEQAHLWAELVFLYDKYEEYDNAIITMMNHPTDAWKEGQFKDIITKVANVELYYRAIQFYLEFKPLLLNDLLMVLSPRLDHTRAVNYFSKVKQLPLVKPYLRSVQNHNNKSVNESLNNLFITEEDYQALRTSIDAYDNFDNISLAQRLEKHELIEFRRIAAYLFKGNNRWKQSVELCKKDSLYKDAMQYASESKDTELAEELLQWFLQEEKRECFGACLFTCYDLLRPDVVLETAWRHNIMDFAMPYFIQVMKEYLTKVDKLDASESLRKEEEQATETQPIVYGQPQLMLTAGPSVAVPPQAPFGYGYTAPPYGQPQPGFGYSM
UniProt Q9BQE3: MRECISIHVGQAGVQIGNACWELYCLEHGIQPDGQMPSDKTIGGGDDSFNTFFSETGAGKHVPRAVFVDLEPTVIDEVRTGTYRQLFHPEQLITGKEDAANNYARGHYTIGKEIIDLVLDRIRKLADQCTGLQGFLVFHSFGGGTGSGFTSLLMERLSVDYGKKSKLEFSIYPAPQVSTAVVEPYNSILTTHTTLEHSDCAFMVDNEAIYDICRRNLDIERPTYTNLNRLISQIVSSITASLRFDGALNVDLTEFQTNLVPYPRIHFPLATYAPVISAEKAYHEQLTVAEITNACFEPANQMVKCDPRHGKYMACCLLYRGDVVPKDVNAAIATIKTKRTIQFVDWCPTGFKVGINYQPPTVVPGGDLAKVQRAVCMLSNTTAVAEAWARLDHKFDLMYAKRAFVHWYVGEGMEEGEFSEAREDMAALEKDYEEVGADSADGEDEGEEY
UniProt O75396: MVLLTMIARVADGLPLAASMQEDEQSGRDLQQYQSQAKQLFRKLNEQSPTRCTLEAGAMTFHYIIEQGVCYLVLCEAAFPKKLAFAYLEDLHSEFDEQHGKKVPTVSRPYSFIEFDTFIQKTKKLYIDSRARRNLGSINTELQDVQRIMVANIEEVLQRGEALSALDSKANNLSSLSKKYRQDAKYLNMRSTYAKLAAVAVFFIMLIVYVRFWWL

Target: CXCR7-FLAG (UniProt P25106)
Test: affinity purification with mass spectrometry; LNCaP EnzR cells stably expressing GFP or CXCR7-FLAG lysed in NETN buffer (100 mM NaCl, 20 mM Tris-Cl pH 8.0, 1 mM EDTA, 0.5% NP-40); anti-FLAG M2 agarose overnight at 4°C; glycine elution; mass spectrometry

For GOLPH3 (from UniProt Q9H4A6 1-298), the binding was “binds”.

For TUBB4B (from UniProt P68371 1-445), the binding was “binds”.

With GBF1 (from UniProt Q92538 1-1860) the binding was “binds”.

For “clathrin heavy chain (CLTC) (from UniProt Q00610 1-1675)”, the binding was “binds”.

In the case of TUBA1C (from UniProt Q9BQE3 1-449), the binding is reported as “binds”.

SEC22B (from UniProt O75396 1-215) was tested, and the binding was “binds”.

B1: GPR89B (protein, UniProt P0CG08 1-455)
chain: MSFLIDSSIMITSQILFFGFGWLFFMRQLFKDYEIRQYVVQVIFSVTFAFSCTMFELIIFEILGVLNSSSRYFHWKMNLCVILLILVFMVPFYIGYFIVSNIRLLHKQRLLFSCLLWLTFMYFFWKLGDPFPILSPKHGILSIEQLISRVGVIGVTLMALLSGFGAVNCPYTYMSYFLRNVTDTDILALERRLLQTMDMIISKKKRMAMARRTMFQKGEVHNKPSGFWGMIKSVTTSASGSENLTLIQQEVDALEELSRQLFLETADLYATKERIEYSKTFKGKYFNFLGYFFSIYCVWKIFMATINIVFDRVGKTDPVTRGIEITVNYLGIQFDVKFWSQHISFILVGIIIVTSIRGLLITLTKFFYAISSSKSSNVIVLLLAQIMGMYFVSSVLLIRMSMPLEYRTIITEVLGELQFNFYHRWFDVIFLVSALSSILFLYLAHKQAPEKQMAP
With B1 the binding was “binds”.

Results are given in words; binding and its absence hold for the method and conditions named. In cells and extracts the contact can be indirect. Here binding means that the protein was enriched with, or labelled near, the bait; the list need not be complete.
